Reference: US11083798B2, “Conjugate including peptide molecule capable of self-assembly in cell organelle and pharmaceutical composition for preventing or treating cancer including conjugate” (UNIST (ULSAN NATIONAL INSTITUTE OF SCIENCE AND TECHNOLOGY), priority 2016, dated 2021)
Some of these results come from one statement about several compounds together.

Tested on: HeLa cells
Experiment: mitochondrial membrane potential depolarization with TMRM
Format: cell-based, human
Settings: HeLa cells incubated with TMRM and peptide
Description: Under normal conditions, the inner membrane of mitochondria is in an electrochemically polarized state with a higher concentration of H^+ in the inner membrane space. The electrochemical gradient across the membrane causes H^+ to flow to the inner membrane of mitochondria and this process is coupled with production of adenosine triphosphate (ATP). The external materials which may uncouple this process cause the flow of H^+ to be independent of ATP production. This condition is referred as mitochondrial depolarization, which serves as a preliminary indication of mitochondrial dysfunction.
To examine the effect of Mito-FF on the mitochondrial membrane potential, HeLa cells were incubated with TMRM and Mito-FF. The fluorescence emission from the TMRM was monitored at times lapses of 1 hour, 3 hours, and 6 hours. Red fluorescence of TMRM appears when a mitochondrial membrane is completely polarized, whereas depolarization of a mitochondrial membrane causes disappearance of TMRM red fluorescence.
TEM images of Mito-VV and Mito-FxFx were obtained by observation in the same manner as in Example 3.

NC(=O)[C@H](CCCCNCCCCC[P+](c1ccccc1)(c1ccccc1)c1ccccc1)NC(=O)[C@H](CC1CCCCC1)NC(=O)[C@H](CC1CCCCC1)NC(=O)CCCc1ccc2ccc3cccc4ccc1c2c34 [Mito-FxFx]
time until red fluorescence of TMRM disappeared (membrane depolarization): ≤ 6 h

CC(C)[C@H](NC(=O)CCCc1ccc2ccc3cccc4ccc1c2c34)C(=O)N[C@H](C(=O)N[C@@H](CCCCNCCCCC[P+](c1ccccc1)(c1ccccc1)c1ccccc1)C(N)=O)C(C)C [Mito-VV]
time until red fluorescence of TMRM disappeared (membrane depolarization): ≤ 6 h
